Construct, isoform or probe ends are uncertain for at least one entry. The comparison behind a weaker result is the experiment's own reference, which may not be listed here. For some assays here: At least one verdict was read from the data and is not stated in words by the source. For some assays here: Protein sequences can lack the tags named with them.
Key:
[1] = biological target: T1, Rad51 (Schizosaccharomyces pombe) (UniProt P36601); assay: streptavidin pull-down; conditions: 2 mM ATP, 5 mM Mg2+, 0.312 uM Fbh1-Skp1 (filament disruption), pull-down: 25 mM Tris-Cl pH 7.5, 100 mM NaCl, 5 mM MgCl2, 37 C, recombinant protein, residues 1-365, label: 5' biotin, single-stranded DNA
T1 sequence (looked up): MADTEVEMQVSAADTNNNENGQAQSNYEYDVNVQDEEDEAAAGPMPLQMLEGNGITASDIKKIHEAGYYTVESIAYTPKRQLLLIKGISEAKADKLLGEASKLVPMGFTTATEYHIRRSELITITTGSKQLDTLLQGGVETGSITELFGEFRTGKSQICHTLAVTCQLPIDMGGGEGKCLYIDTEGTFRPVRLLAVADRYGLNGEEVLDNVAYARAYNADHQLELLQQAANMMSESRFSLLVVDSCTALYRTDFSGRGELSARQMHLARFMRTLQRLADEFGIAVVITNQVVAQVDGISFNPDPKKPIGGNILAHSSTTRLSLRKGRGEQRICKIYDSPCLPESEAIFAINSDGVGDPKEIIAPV

[2] = tested on: Rad51 + S5S1-7A (Rad51 interaction mutant); assay: streptavidin pull-down; conditions: ATP, Mg2+, Fbh1-Skp1, impaired stabilization; pull-down: 25 mM Tris-Cl pH 7.5, 100 mM NaCl, 2 mM ATP, 5 mM MgCl2, 37 C; recombinant protein; protein details: N-terminal His6 on Sfr1; label: 5' biotin; single-stranded DNA
[3] = tested on: Rad51 + S5S1-7A (Rad51 interaction mutant); assay: negative-stain EM; conditions: 2 mM ATP, 5 mM Mg2+, partial stabilization; recombinant protein; protein details: N-terminal His6 on Sfr1; single-stranded DNA
[4] = tested on: S5S1-7A (Rad51 interaction mutant) (Schizosaccharomyces pombe); assay: EMSA; conditions: 3.5 mM Mg2+, unlike PM, no significant shift implied, EMSA: 25 mM Hepes-KOH pH 7.5, 100 mM KCl, 3.5 mM MgCl2, 0.5 mM TCEP, 5% glycerol, 20 nM DNA, 37 C 15 min, 0.8% agarose in TAE at 4 C, recombinant protein, protein details: N-terminal His6 on Sfr1

Question: What does the source list for “ATAAGGCCACGTATTTTGCAAGCTATTTAACTGGCGGCGATTGCGTACCCGACGACCAAAATTAGGGTCAACGCTACCTGTAGGAAGTGTCCGCATAAAG [BA655 100-mer ssDNA]”?
Answer: binding result [1]: binds more weakly; binding result [2]: binds more weakly

Question: Does “TTCAATATCTGGTTGAACGGCGTCGCGTCGTAACCCAGCTTGGTAAGTTGGATTAAGCACTCCGTGGACAGATTTGTCATTGTGAGCATTTTCATCCCGAAGTTGCGGCTCATTCT [BA494 116-mer ssDNA]” bind [3]?
Answer: Result: binds more weakly

Question: Does “TTGATAAGAGGTCATTTTTGCGGATGGCTTAGAGCTTAATTGCTGAATCTGGTGCTGTAGCTCAACATGTTTTAAATATG (double strand) [BA663/BA664 80-bp dsDNA]” bind ([4]; label: 3' Cy5 on BA663)?
Answer: Result: binds more weakly

Question: Does “TTGATAAGAGGTCATTTTTGCGGATGGCTTAGAGCTTAATTGCTGAATCTGGTGCTGTAGCTCAACATGTTTTAAATATG [BA663 80-mer ssDNA]” bind ([4]; label: 3' Cy5, single-stranded DNA)?
Answer: Result: binds more weakly

Source: paper PMC10366545, “Phosphoregulation of DNA repair via the Rad51 auxiliary factor Swi5–Sfr1” (The Journal of Biological Chemistry, 2023)
